These are yes or no findings as the source states them, for the method shown. In cells and extracts the contact can be indirect. These calls come from enrichment with a bait or labelling near it, and not all partners need be listed.
Molecular target: tagged polycystin-1 (PC1-eGFP), product of the Pkd1^eGFP knock-in allele (mouse) (UniProt O08852)
Assay: affinity purification with mass spectrometry

Amino acid sequences for entries named in this document (tags omitted). Residues count along the entry.
UniProt O08852, residues 24-4293: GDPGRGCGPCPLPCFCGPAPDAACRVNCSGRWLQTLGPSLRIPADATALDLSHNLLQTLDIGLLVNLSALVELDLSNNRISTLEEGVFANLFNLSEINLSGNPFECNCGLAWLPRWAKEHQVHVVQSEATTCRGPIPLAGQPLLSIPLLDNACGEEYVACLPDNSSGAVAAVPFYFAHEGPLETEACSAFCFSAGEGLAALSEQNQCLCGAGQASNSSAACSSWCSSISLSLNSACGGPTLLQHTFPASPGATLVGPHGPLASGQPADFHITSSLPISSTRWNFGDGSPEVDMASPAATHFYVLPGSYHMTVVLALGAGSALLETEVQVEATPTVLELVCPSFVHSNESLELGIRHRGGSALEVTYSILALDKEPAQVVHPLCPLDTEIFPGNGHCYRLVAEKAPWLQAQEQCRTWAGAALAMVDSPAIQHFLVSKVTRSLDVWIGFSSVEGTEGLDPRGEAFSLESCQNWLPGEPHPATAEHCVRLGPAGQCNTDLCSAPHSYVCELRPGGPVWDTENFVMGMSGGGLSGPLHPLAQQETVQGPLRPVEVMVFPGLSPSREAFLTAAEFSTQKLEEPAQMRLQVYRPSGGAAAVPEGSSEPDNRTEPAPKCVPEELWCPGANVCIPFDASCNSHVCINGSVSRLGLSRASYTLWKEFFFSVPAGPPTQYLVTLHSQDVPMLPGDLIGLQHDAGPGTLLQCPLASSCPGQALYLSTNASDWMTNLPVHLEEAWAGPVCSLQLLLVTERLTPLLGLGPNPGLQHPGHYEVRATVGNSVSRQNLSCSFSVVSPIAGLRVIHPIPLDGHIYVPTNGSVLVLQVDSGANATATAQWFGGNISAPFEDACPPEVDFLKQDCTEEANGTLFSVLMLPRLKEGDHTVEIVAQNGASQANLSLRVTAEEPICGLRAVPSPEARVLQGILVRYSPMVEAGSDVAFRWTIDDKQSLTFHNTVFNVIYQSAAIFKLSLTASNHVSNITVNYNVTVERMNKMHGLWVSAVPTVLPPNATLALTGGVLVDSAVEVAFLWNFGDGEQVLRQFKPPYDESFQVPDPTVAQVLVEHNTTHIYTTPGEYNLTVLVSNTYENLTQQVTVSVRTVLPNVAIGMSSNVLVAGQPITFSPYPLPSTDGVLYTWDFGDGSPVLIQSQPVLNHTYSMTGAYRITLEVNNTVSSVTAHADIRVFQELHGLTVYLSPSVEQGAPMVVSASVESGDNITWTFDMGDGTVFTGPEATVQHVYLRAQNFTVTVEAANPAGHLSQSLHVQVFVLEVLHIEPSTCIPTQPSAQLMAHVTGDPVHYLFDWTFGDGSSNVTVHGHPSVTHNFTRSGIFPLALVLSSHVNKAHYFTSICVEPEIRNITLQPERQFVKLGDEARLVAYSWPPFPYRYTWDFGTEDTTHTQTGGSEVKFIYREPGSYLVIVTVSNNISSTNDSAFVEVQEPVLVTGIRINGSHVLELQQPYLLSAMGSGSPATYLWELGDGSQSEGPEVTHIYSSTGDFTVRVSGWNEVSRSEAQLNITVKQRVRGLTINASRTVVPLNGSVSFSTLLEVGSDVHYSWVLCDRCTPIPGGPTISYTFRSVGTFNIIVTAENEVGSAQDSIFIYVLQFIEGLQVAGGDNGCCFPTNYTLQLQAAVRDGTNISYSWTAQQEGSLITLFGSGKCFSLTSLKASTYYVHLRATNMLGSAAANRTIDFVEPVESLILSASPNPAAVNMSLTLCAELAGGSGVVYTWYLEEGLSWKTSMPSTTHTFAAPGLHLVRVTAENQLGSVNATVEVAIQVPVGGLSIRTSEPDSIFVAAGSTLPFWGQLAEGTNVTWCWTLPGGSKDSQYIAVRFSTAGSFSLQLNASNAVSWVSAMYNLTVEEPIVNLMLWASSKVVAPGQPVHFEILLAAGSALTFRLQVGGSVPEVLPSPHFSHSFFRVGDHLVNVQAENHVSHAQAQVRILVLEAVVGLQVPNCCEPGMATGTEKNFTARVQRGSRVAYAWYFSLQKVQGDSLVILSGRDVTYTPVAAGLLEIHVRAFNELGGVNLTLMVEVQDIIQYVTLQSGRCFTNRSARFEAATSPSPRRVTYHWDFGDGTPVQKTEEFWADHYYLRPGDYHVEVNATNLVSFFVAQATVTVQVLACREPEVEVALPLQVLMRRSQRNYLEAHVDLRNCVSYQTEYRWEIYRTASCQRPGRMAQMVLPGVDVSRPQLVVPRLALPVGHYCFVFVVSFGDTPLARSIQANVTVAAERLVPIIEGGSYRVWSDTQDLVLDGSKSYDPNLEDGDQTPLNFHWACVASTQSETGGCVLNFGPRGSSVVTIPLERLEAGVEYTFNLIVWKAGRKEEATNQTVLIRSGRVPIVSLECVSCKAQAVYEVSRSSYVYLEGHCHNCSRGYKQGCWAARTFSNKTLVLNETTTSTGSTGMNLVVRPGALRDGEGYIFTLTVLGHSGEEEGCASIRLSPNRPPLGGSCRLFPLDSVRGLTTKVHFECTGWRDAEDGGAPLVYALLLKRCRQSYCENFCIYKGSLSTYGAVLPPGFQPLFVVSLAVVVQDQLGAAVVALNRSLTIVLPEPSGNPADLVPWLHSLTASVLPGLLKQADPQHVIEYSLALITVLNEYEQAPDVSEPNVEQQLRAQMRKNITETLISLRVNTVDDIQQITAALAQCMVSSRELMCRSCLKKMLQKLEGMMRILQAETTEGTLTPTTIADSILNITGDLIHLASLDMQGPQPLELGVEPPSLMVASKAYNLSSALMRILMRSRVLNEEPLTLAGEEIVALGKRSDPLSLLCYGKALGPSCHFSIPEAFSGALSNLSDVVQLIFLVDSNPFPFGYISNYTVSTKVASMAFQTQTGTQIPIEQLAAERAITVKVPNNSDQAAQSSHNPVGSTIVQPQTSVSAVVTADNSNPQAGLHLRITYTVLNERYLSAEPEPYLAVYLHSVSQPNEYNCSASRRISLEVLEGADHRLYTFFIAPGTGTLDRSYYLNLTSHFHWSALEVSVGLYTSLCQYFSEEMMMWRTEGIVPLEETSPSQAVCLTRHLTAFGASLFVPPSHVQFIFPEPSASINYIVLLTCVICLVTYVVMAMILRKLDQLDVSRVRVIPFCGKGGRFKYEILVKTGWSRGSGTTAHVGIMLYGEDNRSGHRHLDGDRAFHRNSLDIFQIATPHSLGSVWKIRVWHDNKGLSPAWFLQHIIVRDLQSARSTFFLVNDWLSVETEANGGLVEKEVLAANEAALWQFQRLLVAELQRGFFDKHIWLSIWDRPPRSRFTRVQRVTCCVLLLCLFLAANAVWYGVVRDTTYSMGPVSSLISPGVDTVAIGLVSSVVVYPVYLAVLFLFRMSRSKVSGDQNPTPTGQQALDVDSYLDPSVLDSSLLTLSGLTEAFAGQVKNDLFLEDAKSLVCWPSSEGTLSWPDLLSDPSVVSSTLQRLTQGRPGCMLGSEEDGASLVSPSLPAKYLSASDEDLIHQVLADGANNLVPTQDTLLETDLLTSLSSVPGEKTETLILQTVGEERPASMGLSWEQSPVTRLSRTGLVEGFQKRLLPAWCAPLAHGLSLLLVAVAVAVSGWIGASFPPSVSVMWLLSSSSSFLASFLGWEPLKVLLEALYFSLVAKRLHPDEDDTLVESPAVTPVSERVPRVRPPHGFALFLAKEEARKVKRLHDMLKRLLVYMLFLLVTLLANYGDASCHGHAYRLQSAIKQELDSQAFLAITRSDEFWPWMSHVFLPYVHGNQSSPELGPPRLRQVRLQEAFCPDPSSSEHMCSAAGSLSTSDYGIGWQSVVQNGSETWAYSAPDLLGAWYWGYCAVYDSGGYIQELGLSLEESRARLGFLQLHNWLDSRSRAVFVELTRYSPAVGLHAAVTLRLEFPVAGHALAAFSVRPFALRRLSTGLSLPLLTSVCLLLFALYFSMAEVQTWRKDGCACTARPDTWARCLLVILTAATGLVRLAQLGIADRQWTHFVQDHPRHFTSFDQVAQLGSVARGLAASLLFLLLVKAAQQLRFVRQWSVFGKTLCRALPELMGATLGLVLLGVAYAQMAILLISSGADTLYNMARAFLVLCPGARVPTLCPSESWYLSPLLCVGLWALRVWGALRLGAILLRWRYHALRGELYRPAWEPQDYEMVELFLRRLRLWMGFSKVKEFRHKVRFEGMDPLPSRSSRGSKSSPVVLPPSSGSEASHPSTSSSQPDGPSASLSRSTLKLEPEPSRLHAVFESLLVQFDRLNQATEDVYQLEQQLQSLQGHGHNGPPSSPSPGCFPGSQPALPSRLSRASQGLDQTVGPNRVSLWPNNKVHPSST

binding: binds
B1: nicotinamide nucleotide transhydrogenase (Nnt) (protein, UniProt Q61941 44-1086)
chain: CKSPVKPGIPYKQLTVGVPKEIFQNEKRVALSPAGVQALVKQGFNVVVESGAGEASKFPDDLYRAAGAQIQGMKEVLASDLVVKVRAPMVNPTLGAHEADFLKPSGTLISFIYPAQNPDLLNKLSERKTTVLAMDQVPRVTIAQGYDALSSMANISGYKAVVLAANHFGRFFTGQITAAGKVPPAKILIVGGGVAGLASAGAAKSMGAVVRGFDTRAAALEQFKSLGAEPLEVDLKESGEGQGGYAKEMSKEFIEAEMKLFAQQCKEVDILISTALIPGKKAPVLFSKEMIESMKEGSVVVDLAAEAGGNFETTKPGELYVHKGITHIGYTDLPSRMATQASTLYSNNITKLLKAISPDKDNFHFEVKDDFDFGTMSHVIRGTVVMKDGKVIFPAPTPKNIPEEAPVKPKTVAELEAEKAGTVSMYTKTLTTASVYSAGLTGMLGLGIVAPNVAFSQMVTTFGLAGIIGYHTVWGVTPALHSPLMSVTNAISGLTAVGGLALMGGHFYPSTTSQSLAALATFISSVNIAGGFLVTQRMLDMFKRPTDPPEYNYLYLLPGGTFVGGYLAALYGGYNIEEIMYLGSGLCCVGALGGLSTQGTARLGNALGMIGVAGGLAATLGGLKPDPQLLAQMSGAMAMGGTIGLTIAKRIQISDLPQLVAAFHSLVGLAAVLTCMAEYIVEYPHFAMDATSNFTKIVAYLGTYIGGVTFSGSLVAYGKLQGILKSAPLLLPGRHALNAGLLAASVGGIIPFMADPSFTTGITCLGSVSGLSTLMGVTLTAAIGGADMPVVITVLNSYSGWALCAEGFLLNNNLLTIVGALIGSSGAILSYIMCVAMNRSLANVILGGYGTTSTAGGKPMEISGTHTEINLDNAVEMIREANSIVITPGYGLCAAKAQYPIADLVKMLTEQGKKVRFGIHPVAGRMPGQLNVLLAEAGVPYDIVLEMDEINSDFPDTDLVLVIGANDTVNSAAQEDPNSIIAGMPVLEVWKSKQVIVMKRSLGVGYAAVDNPIFYKPNTAMLLGDAKKTCDALQAKVRESYQK

— article doi:10.1101/2022.04.08.487705
